Experimental data from the supplement of paper PMC10503962.
The list shows a part of the results. Repeats are few or missing, and single values can be far off.

Test system: Trichuris muris adult worms
Test: median motility score (Paragon pixel variance) of adult worms (arbitrary units); higher = more motile worms
Details: 24 h

Row | Structure (SMILES) | median motility score (20 µM) | median motility score (50 µM) | median motility score (100 µM)
1 | COc1cc2c3cc1Oc1cc(ccc1O)C[C@@H]1c4c(cc(OC)c(O)c4Oc4ccc(cc4)C[C@@H]3N(C)CC2)CC[N+]1(C)C.Cl.[Cl-] [tubocurarine chloride] | 690 | 3850 | 1190
2 | CC(CN1c2ccccc2Sc2ccccc21)N(C)C (stereo not given) [promethazine] | 1500 | 2970 | 1460
3 | Cc1cc(C)cc(OCC2CNC(=O)O2)c1 (stereo not given) [metaxalone] | 1790 | 2710 | 2290
4 | CN(C)CCC[C@@]1(c2ccc(F)cc2)OCc2cc(C#N)ccc21 [escitalopram] | 3090 | 1230 | 2490
5 | COc1ccccc1OCC(O)COC(N)=O (stereo not given) [methocarbamol] | 3880 | 1810 | 2620
6 | CC(=O)Oc1c(C)cc(OCC(O)CNC(C)C)c(C)c1C (stereo not given) [metipranolol] | 1880 | 2230 | 1900
7 | Cc1ccc(O)c([C@H](CCN(C(C)C)C(C)C)c2ccccc2)c1 [tolterodine] | 1830 | 2850 | 1870
8 | O=C(O)CCCCCCCC(=O)O [azelaic acid] | 2710 | 3320 | 3510
9 | CCCCCCCCCCCCCCCCCCCCCCO [docosanol] | 2070 | 4280 | 3850
10 | CC(=O)N1CCN(c2ccc(OCC3COC(Cn4ccnc4)(c4ccc(Cl)cc4Cl)O3)cc2)CC1 (stereo not given) [ketoconazole] | 2850 | 4120 | 4210
11 | NS(=O)(=O)c1cc(C(=O)O)c(NCc2ccco2)cc1Cl [furosemide] | 2320 | 2130 | 2450
12 | COc1ccccc1OCC(O)CN1CCN(CC(=O)Nc2c(C)cccc2C)CC1 (stereo not given) [ranolazine] | 3170 | 2460 | 2560
13 | CN(C)CCOC(c1ccccc1)c1ccccc1 [diphenhydramine] | 2430 | 2130 | 2070
14 | Cc1ccc(/C(=C\CN2CCCC2)c2ccccn2)cc1 [triprolidine] | 2920 | 2230 | 3220
15 | CN(C)CCCN1c2ccccc2CCc2ccccc21 [imipramine] | 1500 | 2460 | 2160
16 | COc1cc(NC(C)CCCN)c2ncccc2c1 (stereo not given) [primaquine] | 3320 | 2100 | 4320
17 | CC(CN(C)C)CN1c2ccccc2CCc2ccccc21.O=C(O)/C=C/C(=O)O (stereo not given) [trimipramine fumarate] | 2200 | 1880 | 1040
18 | CC(C)Nc1cccnc1N1CCN(C(=O)c2cc3cc(NS(C)(=O)=O)ccc3[nH]2)CC1.CS(=O)(=O)O [delavirdine mesylate] | 1670 | 2580 | 2660
19 | CNCCCC1c2ccccc2C=Cc2ccccc21.Cl [protriptyline hydrochloride] | 2740 | 2100 | 1060
20 | CCOC(=O)C1=C(C)NC(C)=C(C(=O)OC)C1c1cccc(Cl)c1Cl (stereo not given) [felodipine] | 5120 | 29 | 0
21 | NS(=O)(=O)c1cc(C2(O)NC(=O)c3ccccc32)ccc1Cl (stereo not given) [chlorthalidone] | 858 | 4320 | 4000
22 | C(=C1NCCN1)c1cccc2ccccc12.Cl [naphazoline hydrochloride] | 2810 | 3120 | 3480
23 | CN1CCC[C@@H]1CCO[C@](C)(c1ccccc1)c1ccc(Cl)cc1.Cl [clemastine hydrochloride] | 2580 | 644 | 0
24 | CN(C)CCCN1c2ccccc2CCc2ccc(Cl)cc21.Cl [clomipramine hydrochloride] | 725 | 0 | 0
25 | N[C@@H](Cc1c[nH]c2ccccc12)C(=O)O [L-tryptophan] | 3110 | 4110 | 3200
26 | CC(C)(O)c1ccccc1CC[C@@H](SCC1(CC(=O)[O-])CC1)c1cccc(/C=C/c2ccc3ccc(Cl)cc3n2)c1.[Na+] [montelukast sodium] | 617 | 3720 | 1470
27 | OC(CNCC(O)C1CCc2cc(F)ccc2O1)C1CCc2cc(F)ccc2O1 (stereo not given) [nebivolol] | 3350 | 2170 | 3940
28 | CCCCCCCCCc1ccc(OCCOCCOCCOCCOCCOCCOCCOCCOCCO)cc1 [nonoxynol 9] | 3010 | 2340 | 0
29 | Clc1ccc(COC(Cn2ccnc2)c2ccc(Cl)cc2Cl)cc1 (stereo not given) [econazole] | 0 | 0 | 0
30 | O=C(O[C@H]1C[C@H]2CC3C[C@@H](C1)N2CC3=O)c1c[nH]c2ccccc12 [dolasetron] | 3010 | 3130 | 3480

Reprinted, entries 27 to 28
Row | Structure (SMILES) | median motility score (20 µM) | median motility score (50 µM) | median motility score (100 µM)
27 | OC(CNCC(O)C1CCc2cc(F)ccc2O1)C1CCc2cc(F)ccc2O1 (stereo not given) [nebivolol] | 3350 | 2170 | 3940
28 | CCCCCCCCCc1ccc(OCCOCCOCCOCCOCCOCCOCCOCCOCCO)cc1 [nonoxynol 9] | 3010 | 2340 | 0
